Measured values reported in PubChem BioAssay (EPA / NIEHS).
Inconclusive means that the source gave no clear call. Such entries were picked first, then a sample of the others. Potencies beside an inconclusive call are fits to weak or partial responses and may not hold up. Calls of active or inactive are those of the source. The calls were made as follows: active = hit-call score of the fitted dose curve at least 0.9, where 1 is the maximum; inconclusive = response in the unintended direction; inactive = score below 0.9.

Experiment: TOX21_p53_BLA_p5_viability: Viability Assessment in the Tox21 HCT-116 p53 Agonism Beta-lactamase Assay, Phase 5 (AID 2283600)
Method in brief: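 Counter-readout for cytotoxicity: ATP-dependent luminescence from CellTiter-Glo, read in the beta-lactamase wells after 30 min at RT, following a 16 h compound exposure at 37C.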

SMILES	AC50	outcome
CC(CN1CC(=O)NC(=O)C1)N1CC(=O)NC(=O)C1 (stereo not drawn)	inconclusive: 45.1 µM	–
CC[N+](CC)(CCNC(=O)C(=O)NCC[N+](CC)(CC)Cc1ccccc1Cl)Cc1ccccc1Cl	inconclusive: 23 µM	–
CCCCC(CC)COC(=O)C=Cc1ccc(OC)cc1 (stereo not drawn)	inconclusive: 45.9 µM	inactive
BrCCCCCBr	–	inactive
O=C(O)c1cccc(/C=C2/C[C@@H]3[C@@H](/C=C/[C@@H](O)C4CCCCC4)[C@H](O)C[C@@H]3O2)c1	–	inactive
CNC(=O)c1ccccc1Sc1ccc2c(/C=C/c3ccccn3)n[nH]c2c1	inconclusive: 5.61 µM	–
CCCCCN=C(N)N/N=C/c1c[nH]c2ccc(OC)cc12	inconclusive: 42 µM	–
COC(=O)[C@H]1[C@H]2C[C@@H]3c4[nH]c5cc(OC)ccc5c4CCN3C[C@H]2C[C@H](OC)[C@@H]1OC	inconclusive: 0.00234 µM	–
COc1ccccc1OCC(O)CN1CCN(CC(=O)Nc2c(C)cccc2C)CC1 (stereo not drawn)	inconclusive: 0.108 µM	–
Nc1nc2ccc(OC(F)(F)F)cc2s1	inconclusive: 23 µM	–
NC(=O)NC(=O)Cc1ccccc1	inconclusive: 23 µM	–
CCC(=O)O[C@]1(C(=O)CCl)[C@@H](C)C[C@H]2[C@@H]3CCC4=CC(=O)C=C[C@]4(C)[C@@]3(F)[C@@H](O)C[C@@]21C	inconclusive: 23 µM	–
CC(=O)Oc1ccc([N+](=O)[O-])cc1CCl	inconclusive: 46.1 µM	–
c1ccc2c(c1)CCc1ccccc1N2	inconclusive: 0.000414 µM	–
CCN(CC)CCOC(=O)C(Cc1cccc2ccccc12)CC1CCCO1 (stereo not drawn)	inconclusive: 2.04 µM	–
CC1(C)[C@H]2CC[C@](C)(C2)[C@H]1O	inconclusive: 0.0384 µM	–
CN(C)[C@@H]1C(=O)C(C(=O)NCN2CCCC2)=C(O)[C@@]2(O)C(=O)C3=C(O)c4c(O)cccc4[C@@](C)(O)C3C[C@@H]12 (stereo partly drawn)	inconclusive: 23 µM	–

Full records, quoted from the list. Values in the order: AC50	outcome
CCCCCN=C(N)N/N=C/c1c[nH]c2ccc(OC)cc12 reads inconclusive: 42 µM	–
CN(C)[C@@H]1C(=O)C(C(=O)NCN2CCCC2)=C(O)[C@@]2(O)C(=O)C3=C(O)c4c(O)cccc4[C@@](C)(O)C3C[C@@H]12 (stereo partly drawn) reads inconclusive: 23 µM	–
